# Assay results published in the supplement of paper PMC10338343.
# ± gives the standard deviation. The list shows a part of the results, in another mix than the full data. Many of these values have a large error.
# Tested on: MILI (PIWIL2) piRISC loaded with L1MC piRNA (26 nt)
# Assay: pre-steady-state target cleavage rate (min^-1); MIWI and MILI are mouse PIWI proteins and EfPiwi is from a freshwater sponge; tags in brackets are library labels; higher = faster piRNA-guided slicing of the target
# Conditions: guide: L1MC piRNA 5'p-UAACUAAAUACUAUGCAAGCUGUAGG; auxiliary factor: 500 nM mouse GTSF1
# Description: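 Cleave-'n-Seq: a library of target RNAs (target site embedded in constant flanks, ACAGCATTCCGCGTTAGTGATATCCG... 5' flank; DNA-blocked outside the site) at 0.1 nM was incubated with 1 nM active mouse MILI or MIWI piRISC (synthetic 5'-monophosphorylated piRNA guide) with or without 500 nM mouse GTSF1 at 33 °C for 1 min to 16 h. Uncleaved targets were sequenced and normalised to non-target controls, and the pooled three trials were fitted to a burst-and-steady-state model to give the pre-steady-state cleavage rate (min^-1; k3 is constrained to at most 1e-4). Sequence is the target site only; target names encode pairing extent (gX:gY) and contiguous / 1-mismatch / 2-mismatch / bulge geometry. Fits with R² ≤ 0 are excluded.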
row,Sequence,pre-steady-state target cleavage rate
1,UCCUCCUACAGCUUGCAUACAAUUUAGAAA,0.00364 ± 0.0044
2,UCCUGGAUGUGCUUGGUAAGUAUUUAGUAA,0.00211 ± 0.0055
3,UCCUGGAUGAGCUUGCAUAGUAUUUAGUA,0.223 ± 0.025
4,UCCUGCAACAGCUUGCAUAGUAUUUAGUUA,0.398 ± 0.028
5,UCCUCCUACAGCUUGCAUAGGAUUUAGUUA,0.0118 ± 0.0044
6,UCCUGGAUGUCGUUGCAUUGAAUUUAGUUA,0.0014 ± 0.0062
7,UCCUGGAUGUGCUUGCAUAGAAUAUAGUUA,0.00814 ± 0.0043
8,UCCUGGAUCAGCUUGCAUAGAUAUUAGUAA,0.00413 ± 0.0043
9,UCCUGGAACAGCUAGCAUAGAAUUUAGUUA,0.0486 ± 0.0073
10,UCCUGGAUGUCGAUGCAUAGUAUUUAGAAA,0.0516 ± 0.015
11,UCCUGGAUGUCGAAGCAUAGGAUUUAGUUA,0.000335 ± 0.01
12,UCCUGCUACAGCUUGCAGUAGUAUUUAGUUA,0.00973 ± 0.0053
13,UCCUCCUACAGCUUGGUAAGUAUUUAGUAA,0.155 ± 0.025
14,UCCUGGAUGUCGUUGGUUAGUAUUUAGUUA,0.00204 ± 0.0062

# Same assay, conditions: guide: L1MC piRNA 5'p-UAACUAAAUACUAUGCAAGCUGUAGG; auxiliary factor: none (no GTSF1)
row,Sequence,pre-steady-state target cleavage rate
1,UCCUCCUACAGCUUGCAUACAAUUUAGAAA,0.000635 ± 0.0098
2,UCCUCCUACAGCUACCAUAGUAUUUAGUAA,0.00199 ± 0.0031
3,UCCUGGAUGUGCUUGGUAAGUAUUUAGUAA,0.001 ± 0.0066
4,UCCUGGAUGAGCUUGCAUAGUAUUUAGUA,0.00747 ± 0.0025
5,UCCUGCAACAGCUUGCAUAGUAUUUAGUUA,0.0107 ± 0.0034
6,UCCUGCUACAGCUUGCUAUGUAUUUUCAAA,0.000453 ± 0.011
7,UCCUCCUACAGCUUGCAUAGGAUUUAGUUA,0.0015 ± 0.0032
8,UCCUGGAUGUCGUUGCAUUGAAUUUAGUUA,0.000807 ± 0.0051
9,UCCUGGAUGUGCUUGCAUAGAAUAUAGUUA,0.00119 ± 0.006
10,UCCUGCUACAGCUUGCAUAGUUAAUAGUAA,0.000614 ± 0.01
11,UCCUGGAUCAGCUUGCAUAGAUAUUAGUAA,0.000484 ± 0.013
12,UCCUGGAUGAGCAUGCAUAGUAUUUAGAAA,0.00148 ± 0.004
13,UCCUGCUACAGCUUGCAUAGUAUAUAGAAA,0.000995 ± 0.0065
14,UCCUGGAACAGCUUGCAUAGUUUAUAGUUA,0.00212 ± 0.0036
15,UCCUCCUACAGCUUGCAUAGAUAUUAGAAA,0.000177 ± 0.016
16,UCCUGGAUGUCGAAGCAUUCUAUUUAGUUA,0.000471 ± 0.0093
17,UCCUGGAACAGCUAGCAUAGAAUUUAGUUA,0.00171 ± 0.003
18,UCCUGGAACAGCUACCAUAGUAUUUACAAA,0.000328 ± 0.02
19,UCCUGGAUGAGCUUGCAUAGUUAUUAGAAA,0.000886 ± 0.0068
20,UCCUGGAUGUCGAUGCAUAGUAUUUAGAAA,0.00104 ± 0.0058
21,UCCUGGAUGUCGAAGCAUAGGAUUUAGUUA,0.00156 ± 0.0033
22,UCCUGCUACAGCUUGCAGUAGUAUUUAGUUA,0.000752 ± 0.0085
23,UCCUGGAUGUCCUUGCAUAGUAUUUAUGUUA,0.00105 ± 0.0071
24,UCCUCCUACAGCUUGGUAAGUAUUUAGUAA,0.00232 ± 0.0027
25,UCCUGGAUGUCGUUGGUUAGUAUUUAGUUA,0.000672 ± 0.0093
26,UCCUGGUACACCUUGCAUAGUAUUUUGUUA,0.00349 ± 0.0043
